Measured values: patent US9834551B2, “Substituted pyrrolo[2,3-b]pyrazines and substituted pyrazolo[3,4-b]pyridines as ITK and JAK kinase inhibitors” (Arrien Pharmaceuticals LLC, priority 2013, dated 2017)

Test system: IL-2 release from CD4+ T cells
Experiment: IL-2 release from CD4+ T cells (HTRF)
Format: cell-based
Conditions: read-out: inhibition of IL-2 release from CD4+ T cells

C[C@@H]1CCN(C(=O)CC#N)C[C@@H]1N(C)c1ncnc2[nH]ccc12 [CP-690550/Tofacitinib, Tofacitinib]
IC50: 1200 nM
